No constants are given. Whether binding was seen depends on the method and setting. Binding seen in cells or lysates may run through a third protein. Some binding calls cover weakened binding; strength is not graded here.
Biological target: T1, mucin 15 (human (endogenous in OVCAR3)) (UniProt Q8N387)
T1 sequence: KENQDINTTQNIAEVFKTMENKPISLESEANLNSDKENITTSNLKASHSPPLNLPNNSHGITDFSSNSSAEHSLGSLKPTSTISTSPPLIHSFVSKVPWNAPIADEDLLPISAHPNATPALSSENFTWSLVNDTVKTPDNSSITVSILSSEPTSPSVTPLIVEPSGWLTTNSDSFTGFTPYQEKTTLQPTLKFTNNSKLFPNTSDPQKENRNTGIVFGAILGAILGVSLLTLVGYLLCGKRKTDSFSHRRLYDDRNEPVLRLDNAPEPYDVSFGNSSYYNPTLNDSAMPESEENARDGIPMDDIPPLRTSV
Assay: co-IP; OVCAR3 lysate (static adherent culture, 70% confluency) incubated overnight at 4°C with anti-MUC15 coupled to Pierce agarose resin (Pierce Co-Immunoprecipitation Kit); eluate analysed by SDS-PAGE and immunoblot

binding: binds
B1: PLCβ1 (enzyme, UniProt Q9NQ66 1-1216)
chain: MAGAQPGVHALQLKPVCVSDSLKKGTKFVKWDDDSTIVTPIILRTDPQGFFFYWTDQNKETELLDLSLVKDARCGRHAKAPKDPKLRELLDVGNIGRLEQRMITVVYGPDLVNISHLNLVAFQEEVAKEWTNEVFSLATNLLAQNMSRDAFLEKAYTKLKLQVTPEGRIPLKNIYRLFSADRKRVETALEACSLPSSRNDSIPQEDFTPEVYRVFLNNLCPRPEIDNIFSEFGAKSKPYLTVDQMMDFINLKQRDPRLNEILYPPLKQEQVQVLIEKYEPNNSLARKGQISVDGFMRYLSGEENGVVSPEKLDLNEDMSQPLSHYFINSSHNTYLTAGQLAGNSSVEMYRQVLLSGCRCVELDCWKGRTAEEEPVITHGFTMTTEISFKEVIEAIAECAFKTSPFPILLSFENHVDSPKQQAKMAEYCRLIFGDALLMEPLEKYPLESGVPLPSPMDLMYKILVKNKKKSHKSSEGSGKKKLSEQASNTYSDSSSMFEPSSPGAGEADTESDDDDDDDDCKKSSMDEGTAGSEAMATEEMSNLVNYIQPVKFESFEISKKRNKSFEMSSFVETKGLEQLTKSPVEFVEYNKMQLSRIYPKGTRVDSSNYMPQLFWNAGCQMVALNFQTMDLAMQINMGMYEYNGKSGYRLKPEFMRRPDKHFDPFTEGIVDGIVANTLSVKIISGQFLSDKKVGTYVEVDMFGLPVDTRRKAFKTKTSQGNAVNPVWEEEPIVFKKVVLPTLACLRIAVYEEGGKFIGHRILPVQAIRPGYHYICLRNERNQPLTLPAVFVYIEVKDYVPDTYADVIEALSNPIRYVNLMEQRAKQLAALTLEDEEEVKKEADPGETPSEAPSEARTTPAENGVNHTTTLTPKPPSQALHSQPAPGSVKAPAKTEDLIQSVLTEVEAQTIEELKQQKSFVKLQKKHYKEMKDLVKRHHKKTTDLIKEHTTKYNEIQNDYLRRRAALEKSAKKDSKKKSEPSSPDHGSSTIEQDLAALDAEMTQKLIDLKDKQQQQLLNLRQEQYYSEKYQKREHIKLLIQKLTDVAEECQNNQLKKLKEICEKEKKELKKKMDKKRQEKITEAKSKDKSQMEEEKTEMIRSYIQEVVQYIKRLEEAQSKRQEKLVEKHKEIRQQILDEKPKLQVELEQEYQDKFKRLPLEILEFVQEAMKGKISEDSNHGSAPLSLSSDPGKVNHKTPSSEELGGDIPGKEFDTPL

— PMC11527234
